PubChem BioAssay AID602196 | INSERM, 2012

- Aim: 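Genes whose knock-down alters cisplatin killing of lung cancer cells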
- System: human A549 lung cancer cells
- Reagent: siRNA pair against human genes
- Timing: 48 h transfection before cisplatin; time from cisplatin to read-out not stated
- Treatment: cisplatin at a dose killing half of control-siRNA cells; exact dose and duration not given
- Detection: 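Cisplatin cell death as a shift from the 50% death seen with control siRNA; siRNAs toxic or growth-blocking alone scored 0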
- Direction: two-siRNA summed score (-2 to +2): higher = both siRNAs protect from cisplatin killing; -2 means both sensitise; mean protection from cisplatin (shift in death) and protection from cisplatin (shift in death), siRNA C and protection from cisplatin (shift in death), siRNA D: higher = protection from cisplatin killing
- Active means: 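siRNAs harmful alone (LDH or WST-1) get 0; others get +1 for less and -1 for more cisplatin killing; genes are active when the two siRNAs give the same sign, summing to ±2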
- Meaning of the calls: active = both siRNAs shift cisplatin killing the same way; inactive = no consistent shift, or siRNA harmful alone
Here is a random part of about 23,000 reagents tested. Of all reagents, 455 (2%) were called active. 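Active includes both protection and sensitisation; some change values fall well beyond the stated -50 to +50 range.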 A number with no mark means an inactive call. Not given: the amount of reagent.

| Gene | two-siRNA summed score (-2 to +2) | mean protection from cisplatin (shift in death) (%) | protection from cisplatin (shift in death), siRNA C (%) | protection from cisplatin (shift in death), siRNA D (%) |
| --- | --- | --- | --- | --- |
| NKAIN3 (GeneID 286183) | 0 | 2.6 | -3.7 | 8.8 |
| PLCG2 (GeneID 5336) | -1 | -2 | -20 | 16.1 |
| GCNT3 (GeneID 9245) | 1 | 8.8 | 25.8 | -8.3 |
| LINC02709 (GeneID 440028) | 0 | 20.5 | 1.6 | 39.3 |
| NKG7 (GeneID 4818) | 0 | -1.8 | -12.6 | 9 |
| LYPLAL1 (GeneID 127018) | 0 | -3.4 | -1.7 | -5.2 |
| SHOC2 (GeneID 8036) | -1 | -8.1 | -21.3 | 5.2 |
| CCDC144NL (GeneID 339184) | 2 (active) | 20.7 | 27.2 | 14.1 |
| LOC440331 | 0 | 5.8 | 2.7 | 9 |
| IDO2 (GeneID 169355) | -1 | -12.4 | -7.7 | -17.2 |
| LOC284409 | 0 | 7.1 | 7.8 | 6.4 |
| LOC400701 | 0 | 3.6 | 6.9 | 0.3 |
| MAP4K2 (GeneID 5871) | 1 | 1.1 | -10.1 | 12.4 |
| DMC1 (GeneID 11144) | -1 | -11.3 | 6 | -28.6 |
| RFX3 (GeneID 5991) | 0 | -4.8 | 2.9 | -12.4 |
| LOC285961 | 0 | 7.7 | 3.1 | 12.3 |
| CDADC1 (GeneID 81602) | -1 | -9.4 | -4.9 | -13.9 |

Next part, starting with the last 3 of the part before.
| Gene | two-siRNA summed score (-2 to +2) | mean protection from cisplatin (shift in death) (%) | protection from cisplatin (shift in death), siRNA C (%) | protection from cisplatin (shift in death), siRNA D (%) |
| --- | --- | --- | --- | --- |
| RFX3 (GeneID 5991) | 0 | -4.8 | 2.9 | -12.4 |
| LOC285961 | 0 | 7.7 | 3.1 | 12.3 |
| CDADC1 (GeneID 81602) | -1 | -9.4 | -4.9 | -13.9 |
| FAM74A4 (GeneID 401508) | 0 | 2.8 | 7.7 | -2 |
| HELQ (GeneID 113510) | 1 | 18.4 | 20.5 | 16.3 |
| CGB3 (GeneID 1082) | 0 | 10.9 | 9.1 | 12.7 |
| UNG (GeneID 7374) | 0 | -14.1 | -28.8 | 0.5 |
| CD46 (GeneID 4179) | 0 | 17.3 | 20.5 | 14.2 |
| AP5S1 (GeneID 55317) | 0 | 8.5 | 5.4 | 11.7 |
| AKAP7 (GeneID 9465) | 0 | 1.6 | -11 | 14.3 |
| NXPH2 (GeneID 11249) | 1 | 23 | 25.8 | 20.1 |
| ZNF266 (GeneID 10781) | 0 | 20.2 | 27.7 | 12.7 |
| CCDC110 (GeneID 256309) | 1 | 7 | -2.4 | 16.4 |
| LOC284230 | 0 | -6.7 | -12.6 | -0.8 |
| SIX2 (GeneID 10736) | 2 (active) | 28.6 | 30.6 | 26.7 |
| CRX (GeneID 1406) | 0 | -16.9 | -32.6 | -1.2 |
| VARS2 (GeneID 57176) | 0 | -28 | -27.2 | -28.8 |
| POLG2 (GeneID 11232) | 2 (active) | 23 | 17 | 29.1 |
| BCL10 (GeneID 8915) | 0 | 5.1 | 11.5 | -1.3 |
| FLJ39207 | 0 | -6.3 | -5.9 | -6.7 |
| RGMB (GeneID 285704) | 0 | 6.4 | 7.2 | 5.7 |
| METTL4 (GeneID 64863) | 0 | -2 | 0.2 | -4.3 |
| MGA (GeneID 23269) | 0 | 0.3 | 5.1 | -4.4 |
| LRGUK (GeneID 136332) | 0 | 4.5 | -0.8 | 9.7 |
| RAPH1 (GeneID 65059) | 0 | 7.2 | 3.1 | 11.3 |
